Source: the supplement of paper PMC9744312
Counter-ions that a name gives are not always drawn. Some of the results follow. Single values of this set are uncertain.

tested on: Peyronie's disease tunica albuginea primary fibroblasts; assay: inhibition of TGF-beta1-induced alpha-SMA expression (myofibroblast transformation), relative to TGF-beta1-only and untreated controls; higher = stronger inhibition of myofibroblast transformation; conditions: 10 µM; TGF-beta1 10 ng/mL; 72 h

Row | Structure (SMILES) | inhibition of TGF-beta1-induced alpha-SMA expression [%]
1 | CCCC(=O)Nc1ccc(OCC(O)CNC(C)C)c(C(C)=O)c1 (stereo unspecified) [Acebutolol HCl] | -6.07
2 | CO/N=C(\C(=O)N[C@@H]1C(=O)N2C(C(=O)O)=C(CSC(=O)c3ccco3)CS[C@H]12)c1csc(N)n1 [Ceftiofur HCl] | 7.88
3 | CO/N=C(\C(=O)N[C@@H]1C(=O)N2C(C(=O)O)=C(CSC(=O)c3ccco3)CS[C@H]12)c1csc(N)n1 [Ceftiofur] | -1.57
4 | CN1[C@@H]2CC[C@H]1C[C@@H](OC(c1ccccc1)c1ccccc1)C2 [Benztropine mesylate] | 47.9
5 | CO[C@H]1O[C@H](COS(=O)(=O)O)[C@@H](O[C@@H]2O[C@@H](C(=O)O)[C@@H](O[C@H]3O[C@H](COS(=O)(=O)O)[C@@H](O[C@@H]4O[C@H](C(=O)O)[C@@H](O[C@H]5O[C@H](COS(=O)(=O)O)[C@@H](O)[C@H](O)[C@H]5NS(=O)(=O)O)[C@H](O)[C@H]4O)[C@H](OS(=O)(=O)O)[C@H]3NS(=O)(=O)O)[C@H](O)[C@H]2OS(=O)(=O)O)[C@H](O)[C@H]1NS(=O)(=O)O [Fondaparinux Sodium] | 32.3
6 | O=C(Nc1ccccc1)OCC(CN1CCCCC1)OC(=O)Nc1ccccc1 (stereo unspecified) [Diperodon HCl] | 45
7 | COc1cc2ncnc(Nc3ccc(F)c(Cl)c3)c2cc1NC(=O)/C=C/CN1CCCCC1 | > 100
8 | CCCCC1C(=O)N(c2ccccc2)N(c2ccccc2)C1=O [Phenylbutazone] | 7.48
9 | CCCc1nc2c(C)cc(-c3nc4ccccc4n3C)cc2n1Cc1ccc(-c2ccccc2C(=O)O)cc1 [Telmisartan] | 8.03
10 | CCCCOC(=O)c1ccc(O)cc1 [Butylparaben] | -42.7
11 | COCCCOc1cc(C[C@@H](C[C@H](N)[C@@H](O)C[C@H](C(=O)NCC(C)(C)C(N)=O)C(C)C)C(C)C)ccc1OC [Aliskiren Hemifumarate] | -2.38
12 | CCCCC[C@](C)(O)/C=C/[C@@H]1[C@@H](C/C=C\CCCC(=O)O)[C@@H](O)C[C@H]1O [Carboprost] | 55.8
13 | CC1=CC(=O)c2ccccc2C1=O [Menadione] | 63
14 | CC(=O)/N=c1/sc(S(N)(=O)=O)nn1C [Methazolamide] | 29.9
15 | Cc1ccc(C(=O)N(CCCN)[C@@H](c2nc3cc(Cl)ccc3c(=O)n2Cc2ccccc2)C(C)C)cc1 | > 100
16 | C[C@@H](Oc1cc(-c2cnn(C3CCNCC3)c2)cnc1N)c1c(Cl)ccc(F)c1Cl | 91.3
17 | Cc1cc(Nc2ncc(Cl)c(Nc3ccccc3S(=O)(=O)C(C)C)n2)c(OC(C)C)cc1C1CCNCC1 [Ceritinib (LDK378)] | > 100
18 | COCCCOc1ccnc(C[S+]([O-])c2nc3ccccc3[nH]2)c1C (stereo unspecified) [Rabeprazole] | 13.1
19 | COCCCOc1ccnc(C[S+]([O-])c2nc3ccccc3[nH]2)c1C (stereo unspecified) [Rebeprazole sodium] | -35.6
20 | CNCC[C@@H](Oc1ccccc1C)c1ccccc1 [Atomoxetine HCl] | 25.6
21 | CC(C)(O)CNc1nc(Nc2ccnc(C(F)(F)F)c2)nc(-c2cccc(C(F)(F)F)n2)n1 [Enasidenib (AG-221)] | -13.3
22 | Cc1ccc(C(=O)C(C)CN2CCCCC2)cc1 (stereo unspecified) [Tolperisone HCl] | -2.63
23 | CC[C@]1(O)C[C@@H]2CN(CCc3c([nH]c4ccccc34)[C@@](C(=O)OC)(c3cc4c(cc3OC)N(C)[C@H]3[C@@](O)(C(=O)OC)[C@H](OC(C)=O)[C@]5(CC)C=CCN6CC[C@]43[C@@H]65)C2)C1 [Vinblastine sulfate] | > 100

Row | Structure (SMILES) | inhibition of TGF-beta1-induced alpha-SMA expression [%]
24 | CCc1cc(/C(C)=N/OCc2ccc(C3CCCCC3)c(C(F)(F)F)c2)ccc1CN1CC(C(=O)O)C1 [BAF312 (Siponimod)] | 19.5
25 | Nc1cc(N2CCCCC2)nc(N)[n+]1OS(=O)(=O)[O-] [Minoxidil sulphate] | -0.653
26 | CC(C)(C)C(O)/C=C/c1ccc2c(c1)OCO2 (stereo unspecified) [Stiripentol] | 7.39
27 | Cc1c(C)c2c(c(C)c1O)CC[C@@](C)(CCC[C@H](C)CCC[C@H](C)CCCC(C)C)O2 [Vitamin E] | 16.9
28 | CCN(CCCc1ccccc1)CCCc1ccccc1 [Alverine Citrate] | 21.6
29 | CC(CCc1ccc(O)cc1)NCC(O)c1ccc(O)cc1 (stereo unspecified) [Ractopamine HCl] | -0.844
30 | COc1cc2c(cc1OC)CN(CCc1ccc(NC(=O)c3cccc4c(=O)c5cccc(OC)c5[nH]c34)cc1)CC2 | 15.4
31 | O=P(O)(O)C(O)(Cc1cccnc1)P(=O)(O)O [Risedronate Sodium] | 7.37
32 | CCN(CC)C(=O)N1CCN(C)CC1 [Diethylcarbamazine citrate] | 28.1
33 | O=C(O)c1cc(O)c(O)c(O)c1 [Gallic acid] | 15.6
34 | O=S(=O)(O)CCSSCCS(=O)(=O)O [Dimesna] | 40.2
35 | CN1CCC[C@H]1c1cccnc1 [Nicotine Ditartrate] | -3.14
36 | CO[C@H]1C(=O)[C@]2(C)[C@@H](OC)C[C@H]3OC[C@@]3(OC(C)=O)[C@H]2[C@H](OC(=O)c2ccccc2)[C@]2(O)C[C@H](OC(=O)[C@H](O)[C@@H](NC(=O)OC(C)(C)C)c3ccccc3)C(C)=C1C2(C)C [Cabazitaxel] | 78.1
37 | CCCC(C(=O)OCCN(CC)CC)(c1ccccc1)c1ccccc1 [Proadifen HCl] | 13.3
38 | CCC(=O)NC[C@@H]1C[C@H]1c1cccc2c1CCO2 [Tasimelteon] | 61.7
39 | Clc1ccc(COC(Cn2ccnc2)c2ccc(Cl)cc2Cl)cc1 (stereo unspecified) [Econazole] | -10.2
40 | Clc1ccc(COC(Cn2ccnc2)c2ccc(Cl)cc2Cl)cc1 (stereo unspecified) [Econazole nitrate] | 11.2
41 | Clc1ccccc1C(c1ccccc1)(c1ccccc1)n1ccnc1 [Clotrimazole] | 18.5
42 | NC(=O)NO [Hydroxyurea] | 0.309
43 | O=C(O)c1cc(=O)c2c(OCC(O)COc3cccc4oc(C(=O)O)cc(=O)c34)cccc2o1 [Disodium Cromoglycate] | 81.6
44 | CC(=O)OC(C)C[N+](C)(C)C (stereo unspecified) [Methacholine chloride] | -6.86
45 | CCCCOc1ccc(CC(=O)NO)cc1 [Bufexamac] | 6.24
46 | Oc1c(Cl)cc(Cl)cc1Sc1cc(Cl)cc(Cl)c1O [Bithionol] | 37.6

Shown as a markdown table: part of the list above

| Row | Structure (SMILES) | inhibition of TGF-beta1-induced alpha-SMA expression [%] |
| --- | --- | --- |
| 25 | Nc1cc(N2CCCCC2)nc(N)[n+]1OS(=O)(=O)[O-] [Minoxidil sulphate] | -0.653 |
| 26 | CC(C)(C)C(O)/C=C/c1ccc2c(c1)OCO2 (stereo unspecified) [Stiripentol] | 7.39 |
| 29 | CC(CCc1ccc(O)cc1)NCC(O)c1ccc(O)cc1 (stereo unspecified) [Ractopamine HCl] | -0.844 |
| 31 | O=P(O)(O)C(O)(Cc1cccnc1)P(=O)(O)O [Risedronate Sodium] | 7.37 |
| 32 | CCN(CC)C(=O)N1CCN(C)CC1 [Diethylcarbamazine citrate] | 28.1 |
| 36 | CO[C@H]1C(=O)[C@]2(C)[C@@H](OC)C[C@H]3OC[C@@]3(OC(C)=O)[C@H]2[C@H](OC(=O)c2ccccc2)[C@]2(O)C[C@H](OC(=O)[C@H](O)[C@@H](NC(=O)OC(C)(C)C)c3ccccc3)C(C)=C1C2(C)C [Cabazitaxel] | 78.1 |
| 37 | CCCC(C(=O)OCCN(CC)CC)(c1ccccc1)c1ccccc1 [Proadifen HCl] | 13.3 |
| 38 | CCC(=O)NC[C@@H]1C[C@H]1c1cccc2c1CCO2 [Tasimelteon] | 61.7 |
| 40 | Clc1ccc(COC(Cn2ccnc2)c2ccc(Cl)cc2Cl)cc1 (stereo unspecified) [Econazole nitrate] | 11.2 |
| 41 | Clc1ccccc1C(c1ccccc1)(c1ccccc1)n1ccnc1 [Clotrimazole] | 18.5 |
| 42 | NC(=O)NO [Hydroxyurea] | 0.309 |
| 43 | O=C(O)c1cc(=O)c2c(OCC(O)COc3cccc4oc(C(=O)O)cc(=O)c34)cccc2o1 [Disodium Cromoglycate] | 81.6 |
